According to paper PMC3278457:
No constants are given. Whether binding was seen depends on the method and setting. For part of these data: In cells and extracts the contact can be indirect. Some binding calls cover weakened binding; strength is not graded here. Values belong to the molecule of their own block, whether it stands above or below them.

Sequences of proteins named here, by UniProt entry; tags and fusion partners are left off. A change or cut given only in a name is not applied to a line headed by its entry. A line that says so, or that is headed by a name, gives the form on record, which may keep a tag or linker. Residues count along the entry.
UniProt O35274: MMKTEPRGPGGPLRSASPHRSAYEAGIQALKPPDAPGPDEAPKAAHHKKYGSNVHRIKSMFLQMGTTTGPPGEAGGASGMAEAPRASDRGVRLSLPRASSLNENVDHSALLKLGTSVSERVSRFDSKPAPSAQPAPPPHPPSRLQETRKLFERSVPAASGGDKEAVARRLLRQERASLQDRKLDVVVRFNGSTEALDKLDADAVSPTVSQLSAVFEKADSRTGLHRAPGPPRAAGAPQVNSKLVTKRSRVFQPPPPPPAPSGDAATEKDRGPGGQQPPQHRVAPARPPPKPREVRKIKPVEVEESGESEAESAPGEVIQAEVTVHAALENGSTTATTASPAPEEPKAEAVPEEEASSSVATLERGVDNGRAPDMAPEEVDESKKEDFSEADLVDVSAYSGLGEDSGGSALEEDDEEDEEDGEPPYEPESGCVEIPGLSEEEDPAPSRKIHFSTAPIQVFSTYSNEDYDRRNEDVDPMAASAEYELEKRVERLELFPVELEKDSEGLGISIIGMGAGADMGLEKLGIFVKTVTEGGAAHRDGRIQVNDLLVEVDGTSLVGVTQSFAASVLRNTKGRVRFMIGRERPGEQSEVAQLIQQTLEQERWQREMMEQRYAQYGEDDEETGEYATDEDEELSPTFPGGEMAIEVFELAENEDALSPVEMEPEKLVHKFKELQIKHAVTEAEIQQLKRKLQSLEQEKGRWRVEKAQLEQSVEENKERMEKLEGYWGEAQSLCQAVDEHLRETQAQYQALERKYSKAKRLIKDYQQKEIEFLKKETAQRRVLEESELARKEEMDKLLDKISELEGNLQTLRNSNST
GSTSpN1 (GST-spinophilin residues 1–154): residues 1-154 of O35274
GSTSpN2 (GST-spinophilin residues 151–300): residues 151-300 of O35274
GSTSpC (GST-spinophilin residues 446–817): residues 446-817 of O35274
GSTSpC1 (GST-spinophilin residues 665–817), WT: residues 665-817 of O35274
GSTSpC1 L797P (O35274, form named): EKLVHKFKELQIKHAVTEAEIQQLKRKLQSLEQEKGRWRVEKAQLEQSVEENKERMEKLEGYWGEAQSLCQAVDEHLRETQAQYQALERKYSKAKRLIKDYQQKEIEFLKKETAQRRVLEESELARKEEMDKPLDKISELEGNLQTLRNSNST
GSTSpC1 L688P (O35274, form named): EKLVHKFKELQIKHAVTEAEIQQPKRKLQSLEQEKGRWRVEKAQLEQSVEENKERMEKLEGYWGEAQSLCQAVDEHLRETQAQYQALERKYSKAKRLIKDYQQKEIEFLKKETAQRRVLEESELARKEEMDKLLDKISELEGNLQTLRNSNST
GSTSpC1 L709P (O35274, form named): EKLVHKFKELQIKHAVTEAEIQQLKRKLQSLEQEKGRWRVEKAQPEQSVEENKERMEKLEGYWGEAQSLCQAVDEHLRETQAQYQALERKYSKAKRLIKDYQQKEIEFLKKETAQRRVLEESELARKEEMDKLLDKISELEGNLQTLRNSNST
GSTSpC1 L751P (O35274, form named): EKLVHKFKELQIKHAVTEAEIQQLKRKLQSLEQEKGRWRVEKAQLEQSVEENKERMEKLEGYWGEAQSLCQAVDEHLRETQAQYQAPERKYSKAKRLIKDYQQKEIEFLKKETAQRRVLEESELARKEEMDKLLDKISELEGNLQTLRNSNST
UniProt Q6R891: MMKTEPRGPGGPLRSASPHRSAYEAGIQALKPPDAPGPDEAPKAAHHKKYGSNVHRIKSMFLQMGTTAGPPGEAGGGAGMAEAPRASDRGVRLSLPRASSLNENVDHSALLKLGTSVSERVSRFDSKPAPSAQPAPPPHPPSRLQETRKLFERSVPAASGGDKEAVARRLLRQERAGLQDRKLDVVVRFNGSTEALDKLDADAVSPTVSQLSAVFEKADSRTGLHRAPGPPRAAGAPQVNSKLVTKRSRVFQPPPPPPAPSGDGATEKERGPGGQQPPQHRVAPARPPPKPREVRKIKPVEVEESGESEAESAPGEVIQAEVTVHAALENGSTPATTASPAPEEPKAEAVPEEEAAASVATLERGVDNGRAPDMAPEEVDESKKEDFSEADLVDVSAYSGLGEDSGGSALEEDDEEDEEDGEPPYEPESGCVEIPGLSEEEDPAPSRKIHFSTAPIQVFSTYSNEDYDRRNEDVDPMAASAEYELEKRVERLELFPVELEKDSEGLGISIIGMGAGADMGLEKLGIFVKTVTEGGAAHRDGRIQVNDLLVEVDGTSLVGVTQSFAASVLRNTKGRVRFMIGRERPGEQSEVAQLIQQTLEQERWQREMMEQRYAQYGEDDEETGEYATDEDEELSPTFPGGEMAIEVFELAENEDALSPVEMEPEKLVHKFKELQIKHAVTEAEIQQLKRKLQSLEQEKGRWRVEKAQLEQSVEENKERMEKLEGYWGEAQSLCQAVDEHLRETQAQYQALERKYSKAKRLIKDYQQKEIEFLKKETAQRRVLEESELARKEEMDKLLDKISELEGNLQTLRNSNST
UniProt P28652: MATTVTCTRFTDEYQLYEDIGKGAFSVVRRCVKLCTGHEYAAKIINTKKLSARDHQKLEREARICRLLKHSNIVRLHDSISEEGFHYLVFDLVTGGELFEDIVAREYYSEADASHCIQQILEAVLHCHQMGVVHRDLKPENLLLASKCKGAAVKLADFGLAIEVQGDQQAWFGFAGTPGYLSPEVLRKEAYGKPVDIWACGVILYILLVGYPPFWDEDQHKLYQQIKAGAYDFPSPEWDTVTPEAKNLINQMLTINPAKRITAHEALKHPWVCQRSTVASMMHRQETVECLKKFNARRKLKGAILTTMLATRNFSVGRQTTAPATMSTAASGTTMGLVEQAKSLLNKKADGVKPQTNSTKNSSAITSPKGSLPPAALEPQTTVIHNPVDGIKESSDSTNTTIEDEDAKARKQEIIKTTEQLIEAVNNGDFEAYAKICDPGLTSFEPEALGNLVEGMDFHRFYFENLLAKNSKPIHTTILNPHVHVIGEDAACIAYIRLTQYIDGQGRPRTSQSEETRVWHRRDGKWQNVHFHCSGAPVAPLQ
UniProt Q80TE7: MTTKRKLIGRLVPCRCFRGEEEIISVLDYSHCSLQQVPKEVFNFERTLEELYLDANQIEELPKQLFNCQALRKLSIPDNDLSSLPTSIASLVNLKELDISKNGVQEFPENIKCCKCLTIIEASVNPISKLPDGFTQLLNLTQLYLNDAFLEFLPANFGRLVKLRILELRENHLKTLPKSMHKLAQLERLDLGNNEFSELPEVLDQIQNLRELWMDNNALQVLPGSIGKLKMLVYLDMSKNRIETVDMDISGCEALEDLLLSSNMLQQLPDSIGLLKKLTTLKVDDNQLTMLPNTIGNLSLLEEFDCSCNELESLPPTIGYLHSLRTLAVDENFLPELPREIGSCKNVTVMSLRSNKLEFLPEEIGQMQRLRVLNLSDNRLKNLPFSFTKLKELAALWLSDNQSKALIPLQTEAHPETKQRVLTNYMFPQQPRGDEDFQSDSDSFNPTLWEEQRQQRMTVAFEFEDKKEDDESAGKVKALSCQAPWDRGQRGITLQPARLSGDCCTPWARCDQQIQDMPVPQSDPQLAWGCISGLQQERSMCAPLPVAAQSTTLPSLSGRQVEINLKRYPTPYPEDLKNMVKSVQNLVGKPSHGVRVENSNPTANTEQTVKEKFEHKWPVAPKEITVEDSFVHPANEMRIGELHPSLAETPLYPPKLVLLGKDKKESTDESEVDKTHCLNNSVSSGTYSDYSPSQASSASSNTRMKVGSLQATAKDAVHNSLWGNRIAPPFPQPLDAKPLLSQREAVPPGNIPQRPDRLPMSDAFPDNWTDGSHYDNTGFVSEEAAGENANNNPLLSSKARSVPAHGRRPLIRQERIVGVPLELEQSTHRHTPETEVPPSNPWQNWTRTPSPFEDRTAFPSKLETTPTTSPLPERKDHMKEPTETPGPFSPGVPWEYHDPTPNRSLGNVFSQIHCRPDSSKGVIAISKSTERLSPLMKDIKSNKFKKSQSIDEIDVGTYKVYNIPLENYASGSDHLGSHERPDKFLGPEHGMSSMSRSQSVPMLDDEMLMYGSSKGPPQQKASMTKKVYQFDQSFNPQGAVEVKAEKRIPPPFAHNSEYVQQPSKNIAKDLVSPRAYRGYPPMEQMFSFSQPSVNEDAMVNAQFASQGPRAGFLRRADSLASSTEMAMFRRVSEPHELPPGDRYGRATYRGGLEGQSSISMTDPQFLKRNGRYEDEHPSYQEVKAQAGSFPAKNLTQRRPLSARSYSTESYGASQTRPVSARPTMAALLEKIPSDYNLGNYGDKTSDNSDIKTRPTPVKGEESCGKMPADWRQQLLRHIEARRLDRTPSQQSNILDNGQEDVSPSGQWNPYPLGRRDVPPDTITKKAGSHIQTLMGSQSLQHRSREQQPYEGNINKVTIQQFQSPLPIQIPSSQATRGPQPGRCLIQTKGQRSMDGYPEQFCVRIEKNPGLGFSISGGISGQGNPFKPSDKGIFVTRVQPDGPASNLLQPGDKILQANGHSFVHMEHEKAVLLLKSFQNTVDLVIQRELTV
UniProt Q99104: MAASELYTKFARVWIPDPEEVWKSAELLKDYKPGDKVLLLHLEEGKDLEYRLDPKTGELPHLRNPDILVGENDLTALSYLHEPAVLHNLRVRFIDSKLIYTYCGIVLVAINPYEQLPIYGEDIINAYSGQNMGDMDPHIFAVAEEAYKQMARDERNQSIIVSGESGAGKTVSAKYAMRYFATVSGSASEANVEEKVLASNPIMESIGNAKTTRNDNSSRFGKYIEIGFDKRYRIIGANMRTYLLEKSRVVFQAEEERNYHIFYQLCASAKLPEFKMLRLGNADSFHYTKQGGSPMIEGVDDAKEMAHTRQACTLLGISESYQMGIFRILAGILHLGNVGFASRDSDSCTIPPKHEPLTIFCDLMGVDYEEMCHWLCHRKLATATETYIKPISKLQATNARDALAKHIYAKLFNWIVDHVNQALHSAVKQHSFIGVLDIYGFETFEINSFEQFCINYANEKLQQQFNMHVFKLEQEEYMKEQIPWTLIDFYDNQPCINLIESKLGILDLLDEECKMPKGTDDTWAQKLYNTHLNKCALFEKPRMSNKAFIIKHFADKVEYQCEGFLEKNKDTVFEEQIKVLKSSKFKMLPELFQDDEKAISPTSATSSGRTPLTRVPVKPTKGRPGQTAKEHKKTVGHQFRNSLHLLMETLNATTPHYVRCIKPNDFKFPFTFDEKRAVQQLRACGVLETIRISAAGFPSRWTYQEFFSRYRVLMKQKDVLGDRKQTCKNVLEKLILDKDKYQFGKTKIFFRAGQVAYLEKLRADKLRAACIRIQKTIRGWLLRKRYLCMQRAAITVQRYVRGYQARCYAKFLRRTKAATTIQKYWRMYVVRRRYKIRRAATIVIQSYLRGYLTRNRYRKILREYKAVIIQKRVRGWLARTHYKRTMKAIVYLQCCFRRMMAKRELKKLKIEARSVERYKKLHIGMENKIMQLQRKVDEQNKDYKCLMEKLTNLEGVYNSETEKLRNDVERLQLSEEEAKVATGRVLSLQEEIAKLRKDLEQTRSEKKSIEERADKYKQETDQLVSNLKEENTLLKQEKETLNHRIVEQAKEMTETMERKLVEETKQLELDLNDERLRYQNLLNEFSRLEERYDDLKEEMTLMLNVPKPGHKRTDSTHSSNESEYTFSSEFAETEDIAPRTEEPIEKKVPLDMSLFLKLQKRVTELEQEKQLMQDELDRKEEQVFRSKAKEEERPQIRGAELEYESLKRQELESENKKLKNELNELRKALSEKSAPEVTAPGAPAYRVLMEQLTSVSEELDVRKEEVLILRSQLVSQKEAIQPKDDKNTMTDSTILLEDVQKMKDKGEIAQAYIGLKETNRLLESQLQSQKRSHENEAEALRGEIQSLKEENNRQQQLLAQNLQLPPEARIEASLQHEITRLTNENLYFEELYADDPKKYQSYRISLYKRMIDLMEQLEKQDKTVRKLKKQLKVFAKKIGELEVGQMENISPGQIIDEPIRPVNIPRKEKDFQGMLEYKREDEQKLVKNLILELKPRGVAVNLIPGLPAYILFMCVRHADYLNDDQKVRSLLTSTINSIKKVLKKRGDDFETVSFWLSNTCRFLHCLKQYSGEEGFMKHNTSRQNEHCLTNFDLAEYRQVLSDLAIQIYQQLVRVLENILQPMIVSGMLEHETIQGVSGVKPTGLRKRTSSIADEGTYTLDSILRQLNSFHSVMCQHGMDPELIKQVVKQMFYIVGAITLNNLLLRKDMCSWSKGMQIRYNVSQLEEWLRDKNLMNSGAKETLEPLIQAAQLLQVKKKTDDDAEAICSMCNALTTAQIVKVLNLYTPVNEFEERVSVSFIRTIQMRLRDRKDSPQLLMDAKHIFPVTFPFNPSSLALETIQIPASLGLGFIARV

Legend:
GSTSpC1 L797P = GSTSpC1 L797P (UniProt O35274); experiment: pull-down; GST constructs (10 µg) incubated with 350–500 µl of mouse striatal (Fig. 9A: whole forebrain) Triton-soluble fraction, WT or T286A-KI, PND21 or adult; 50 mM Tris-HCl pH 7.5, 200 mM NaCl, 0.5% Triton X-100; glutathione agarose overnight; immunoblot; only the target purified
[1] = target: GSTSpC1 (GST-spinophilin residues 665–817), WT (UniProt O35274); experiment: as above
GSTSpC1 L688P = GSTSpC1 L688P (UniProt O35274); experiment: as above
[2] = target: GSTSpN2 (GST-spinophilin residues 151–300) (UniProt O35274); experiment: as above
GSTSpC1 L709P = GSTSpC1 L709P (UniProt O35274); experiment: as above
GSTSpC1 L751P = GSTSpC1 L751P (UniProt O35274); experiment: as above
[3] = target: spinophilin, endogenous in mouse striatal TSF (mouse (endogenous in striatum)) (UniProt Q6R891); experiment: co-IP; spinophilin immunoprecipitated with 4 µg goat spinophilin antibody from mouse striatal TSFs (WT or T286A-KI; PND21 or adult); immunoblot
[4] = target: GSTSpC1 (GST-spinophilin residues 665–817), WT (UniProt O35274); experiment: pull-down; as the GST pull-down of purified proteins, with increasing concentrations of a second purified protein (F-actin, CaMKII or His-spinophilin, up to 10-fold molar excess) as competitor; CaMKIIα 250 nM in Fig. 1F; glutathione agarose; immunoblot; both purified
[5] = target: GSTSpC1 (GST-spinophilin residues 665–817), WT (UniProt O35274); experiment: pull-down; GST constructs (250 nM) incubated with purified CaMKII, His-spinophilin or F-actin in 50 mM Tris-HCl pH 7.5, 200 mM NaCl, 0.5% Triton X-100 for 60 min; isolated on glutathione agarose; immunoblot; both purified
[6] = target: GSTSpC (GST-spinophilin residues 446–817) (UniProt O35274); experiment: pull-down; GST constructs (10 µg) incubated with 350–500 µl of mouse striatal (Fig. 9A: whole forebrain) Triton-soluble fraction, WT or T286A-KI, PND21 or adult; 50 mM Tris-HCl pH 7.5, 200 mM NaCl, 0.5% Triton X-100; glutathione agarose overnight; immunoblot; only the target purified
[7] = target: CaMKIIβ, endogenous in mouse brain Triton-soluble fraction (mouse (endogenous in striatum)) (UniProt P28652); experiment: co-IP; CaMKII immunoprecipitated with 3.75 µg of the mouse CaMKIIβ antibody from striatal TSFs of PND21, adult or aged mice; immunoblot
[8] = target: GSTSpN1 (GST-spinophilin residues 1–154) (UniProt O35274); experiment: pull-down; GST constructs (10 µg) incubated with 350–500 µl of mouse striatal (Fig. 9A: whole forebrain) Triton-soluble fraction, WT or T286A-KI, PND21 or adult; 50 mM Tris-HCl pH 7.5, 200 mM NaCl, 0.5% Triton X-100; glutathione agarose overnight; immunoblot; only the target purified

binding (GSTSpC1 L797P): binds
binding [1]: binds
binding (GSTSpC1 L688P): binds
Molecule: densin, endogenous in mouse striatal TSF (from UniProt Q80TE7 1-1490)

binding [2]: binds
Molecule: CaMKIIβ, endogenous in mouse brain Triton-soluble fraction (from UniProt P28652 1-542) (enzyme)

binding (GSTSpC1 L709P): binds
binding (GSTSpC1 L797P): binds
binding (GSTSpC1 L751P): binds
binding (GSTSpC1 L688P): binds
Molecule: spinophilin, endogenous in mouse striatal TSF (from UniProt Q6R891 1-817)

binding [3]: binds
Molecule: myosin Va, endogenous in mouse striatal TSF (from UniProt Q99104 1-1853)

binding [4]: binds
binding [5]: binds
Molecule: purified, full-length, WT, His-tagged spinophilin (from UniProt O35274 1-817)

binding [6]: binds
B1: doublecortin, endogenous in mouse striatal TSF (protein, UniProt O88809 1-366)
chain: MELDFGHFDERDKASRNMRGSRMNGLPSPTHSAHCSFYRTRTLQALSNEKKAKKVRFYRNGDRYFKGIVYAVSSDRFRSFDALLADLTRSLSDNINLPQGVRYIYTIDGSRKIGSMDELEEGESYVCSSDNFFKKVEYTKNVNPNWSVNVKTSANMKAPQSLASSNSAQARENKDFVRPKLVTIIRSGVKPRKAVRVLLNKKTAHSFEQVLTDITEAIKLETGVVKKLYTLDGKQVTCLHDFFGDDDVFIACGPEKFRYAQDDFSLDENECRVMKGNPSAAAGPKASPTPQKTSAKSPGPMRRSKSPADSGNDQDANGTSSSQLSTPKSKQSPISTPTSPGSLRKHKVDLYLPLSLDDSDSLGDSM

binding [7]: binds
binding [8]: binds
binding [3]: binds
B2: α-internexin, endogenous in mouse striatal TSF (protein, UniProt P46660 1-501)
chain: MSFGSEHYLCSASSYRKVFGDSSRLSARLSGPGGSGSFRSQSLSRSNVASTAACSSASSLGLGLAYRRLPASDGLDLSQAAARTNEYKIIRTNEKEQLQGLNDRFAVFIEKVHQLETQNRALEAELAALRQRHAEPSRVGELFQRELRELRAQLEEASSARAQALLERDGLAEEVQRLRARCEEESRGREGAERALKAQQRDVDGATLARLDLEKKVESLLDELAFVRQVHDEEVAELLATLQASSQAAAEVDVAVAKPDLTSALREIRAQYESLAAKNLQSAEEWYKSKFANLNEQAARSTEAIRASREEIHEYRRQLQARTIEIEGLRGANESLERQILELEERHSAEVAGYQDSIGQLESDLRNTKSEMARHLREYQDLLNVKMALDIEIAAYRKLLEGEETRFSTGGLSISGLNPLPNPSYLLPPRILSSTASKVSSAGLSLKKEEEEEEEEASKEVSKKTSKVGEGFEETLGEAVISTKKTGKSATEESTSSSQKM
